Source: PubChem BioAssay AID485298 (National Center for Advancing Translational Sciences (NCATS), 2010)
The campaign covered roughly 320,000 compounds. About 740 (0.23%) were called active. The inconclusive results got no clear call from the source; some entries with a clear call stand among them for comparison. Calls come from the whole dose curve; as a rule, active = well fitted activation curve with a large enough effect; inconclusive = small, poorly fitted or top-dose-only effect; inactive = no such curve, though single readings can be large or run the other way. Where the call is inconclusive, the potency comes from a doubtful curve fit.

Assay: qHTS Assay for Small Molecule Inhibitors of Mitochondrial Division or Activators of Mitochondrial Fusion; note: nearly all actives have a fitted effect of over 45% in size;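 for growth rescue (activation): temperature-sensitive fusion mutants such as fzo1-1 at 37 °C on non-fermentable ethanol glycerol medium; % of control where 0% means no effect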
Conditions: S. cerevisiae fusion-defective mutant growth rescue, CellTiterGlo 48 h; growth rescue (activation): at 46.1 µM (top of the series) unless noted
In short: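 Growth-rescue viability read-out: after 48 h at the non-permissive 37C in glycerol/ethanol YPEG, yeast mitochondrial fusion mutants are measured by CellTiterGlo luminescence; compounds (23 nl pinned per well) restoring growth score as division inhibitors or fusion activators.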
Potency is the fitted concentration of half-maximal effect.

SMILES	Potency	growth rescue (activation)
COc1cccc2sc(=NC(=O)CS(=O)(=O)c3ccc(Cl)cc3)n(C)c12	inconclusive: 31.6 µM [activator, single point]	–
COc1ccc(/C=C2\CCc3ccccc3C2=O)cc1OC	–	inactive: 3.94%
CC(C)c1ccc(C2CC(c3ccc(Br)cc3)=NN2C(N)=S)cc1 (configuration not stated)	inconclusive: 31.6 µM [activator, single point]	–
Nc1c(-c2ccccc2)c(CSc2nc3ccccc3[nH]2)nn1-c1ccc(Cl)cc1	inconclusive: 15.8 µM [activator, partial curve]	–
C=CCN(c1ccccc1OC)S(=O)(=O)c1cccc(C(=O)NCc2cccs2)c1	inconclusive: 35.5 µM [activator, single point]	–
Cc1cc(C(=O)OC(C)C(=O)Nc2nc(-c3ccccc3)cs2)c(C)o1 (configuration not stated)	inconclusive: 11.2 µM [activator, partial curve]	–
COc1ccc(N=C2SC(CC(=O)Nc3ccccc3F)C(=O)N2Cc2ccco2)cc1 (configuration not stated)	inconclusive: 15.8 µM [activator, partial curve]	–
COc1ccc(-c2nc3ccc(C(=O)NCCCN4CCOCC4)cc3nc2-c2ccc(OC)cc2)cc1	inconclusive: 0.562 µM [activator, partial curve, poor fit]	–
COc1ccc(Nc2cnn(-c3nc4ccccc4s3)c(=O)c2Cl)cc1	–	inactive: -4.46%
COc1ccc(Cl)cc1NC(=O)CN(C)C(=O)c1ccc(COc2ccccc2)cc1	inconclusive: 17.8 µM [activator, single point]	–
COc1cc2c(cc1OC)/C(=C/C(=O)N1CCOCC1)NC(C)(C)C2	–	inactive: -0.7%
O=C(c1ccncc1)N(c1ccc2oc3c(c2c1)CCCC3)S(=O)(=O)c1ccc(F)cc1	active: 17.8 µM	–
O=C(c1cc(S(=O)(=O)N2CCN(c3ccccc3)CC2)ccc1Cl)N1CCCC(C(F)(F)F)C1 (configuration not stated)	inconclusive: 11.2 µM [activator, partial curve]	–
COc1ccc(-c2nn(-c3ccccc3)cc2C2CC(c3cccs3)=NN2C(=O)CCC(=O)O)cc1 (configuration not stated)	–	inactive: -0.405%
Cc1cc(NC(=O)CSc2nc3ccccc3n2CCC#N)no1	–	inactive: -1.15%
CCc1ccc([C@@H]2CC=C(C(=O)O)[C@H](c3cccc(Cl)c3)N2S(=O)(=O)c2ccc(C)cc2)cc1	–	inactive: 22.8%
Cc1cccc(C)c1NC(=O)CCCN1C(=O)C(c2ccccc2)Oc2cccnc21 (configuration not stated)	active: 12.6 µM	–
COc1ccc(Nc2cc(C)c3ccccc3n2)cc1	inconclusive: 20 µM [activator, single point]	–
COc1ccc(CN(C(=O)c2nsc(Cl)c2Cl)C(C(=O)NC2CCCC2)c2ccc(OC)cc2)cc1 (configuration not stated)	inconclusive: 12.6 µM [activator, partial curve]	–
CCCCn1c(-c2csc(CCC)c2)n[nH]c1=S	inconclusive: 35.5 µM [activator, single point]	–
COc1ccc(CN(CC(O)COc2cccc3[nH]cc(C)c23)C(C)(C)C)cc1 (configuration not stated)	inconclusive: 14.1 µM [activator, partial curve]	–

SMILES	Potency	growth rescue (activation)
O=c1onc2n1-c1cc(Br)ccc1OC2	inconclusive: 29.1 µM [activator, single point]	–
CCc1ccccc1N1C(=O)CN(Cc2cc(OC)c(OC)c(OC)c2)C1=S	inconclusive: 17.8 µM [activator, partial curve]	–
Cc1ccc(-c2ccc(C(=O)Nc3ccccc3)o2)c2ccccc12	inconclusive: 31.6 µM [activator, single point]	–
Cc1ccc(NC(=O)c2cc(C)n(-c3cccc(C)c3)c2C)cc1	inconclusive: 22.4 µM [activator, single point]	–
CCOc1ccccc1NC(=O)C(OC(=O)c1ccc(O)cc1)c1ccccc1 (configuration not stated)	inconclusive: 12.6 µM [activator, partial curve]	–
COCCCNc1nc2c(-c3cccc(C)c3)nnn2c2ccc(Cl)cc12	inconclusive: 14.1 µM [activator, partial curve]	–
CCCCN(C(=O)c1ccc(C#N)cc1)c1c(N)n(CCC)c(=O)[nH]c1=O	inconclusive: 0.562 µM [activator, full curve, poor fit]	–
O=C(c1ccco1)N1CCN(c2ncnc3c2nnn3Cc2ccccc2Cl)CC1	inconclusive: 22.4 µM [activator, single point]	–
CC(C)(C)c1ccc(/C=C/C(=O)Nc2ncccn2)cc1	inconclusive: 17.8 µM [activator, partial curve]	–
CC(CCc1ccccc1)NC(=O)COC(=O)c1ccc(S(C)(=O)=O)c([N+](=O)[O-])c1 (configuration not stated)	–	inactive: 3.84%
O=C(N/N=C/c1cc2c3c(c1O)CCCN3CCC2)c1ccccc1O	inconclusive: 31.6 µM [activator, single point]	–
COc1cc(CNC(C)c2ccccc2)cc(Br)c1OCc1ccc(F)cc1 (configuration not stated)	–	inactive: -29.9%
COc1cc2c(cc1OC)C(C)N(C(=O)C1COc3ccccc3O1)CC2 (configuration not stated)	inconclusive: 12.6 µM [activator, partial curve]	–
CCN(Cc1ccccc1)C(=O)CCc1nc(-c2ccc(C)cc2)no1	inconclusive: 12.6 µM [activator, partial curve]	–
O=S(=O)(Nc1ccc(N2CCCCC2)cc1)c1ccc(F)c(F)c1	inconclusive: 17.8 µM [activator, partial curve]	–
CCc1ccccc1N(CC(=O)NCCc1ccccc1)C(=O)CCC(=O)Nc1ccccn1	inconclusive: 25.1 µM [activator, partial curve]	–
N#Cc1ccc(C2=CC(=O)C[C@H](c3ccc(Cl)cc3)C2)cc1	inconclusive: 14.1 µM [activator, single point]	–
Cc1ccc(NC2SC(=O)N(Cc3cccc(C(=O)O)c3)C2=O)c(C)c1 (configuration not stated)	–	inactive: -0.747%
Cc1c(C(=O)N2CCN(CC(=O)Nc3ccccc3Cl)CC2)oc2ccc(Br)cc12	inconclusive: 22.4 µM [activator, single point]	–
O=C(COC(=O)c1c(Cl)cccc1Cl)NC1CCCCC1	inconclusive: 3.55 µM [activator, single point]	–
Cc1cccc(OCCCSc2nc3ccc(C)cc3[nH]2)c1	inconclusive: 22.4 µM [activator, single point]	–

A second format for part of the listing above.
SMILES,Potency,growth rescue (activation)
COc1ccc(-c2nc3ccc(C(=O)NCCCN4CCOCC4)cc3nc2-c2ccc(OC)cc2)cc1,"inconclusive: 0.562 µM [activator, partial curve, poor fit]",–
COc1ccc(Nc2cnn(-c3nc4ccccc4s3)c(=O)c2Cl)cc1,–,inactive: -4.46%
